Measured values from article PMC9338958.
No constants are given. Whether binding was seen depends on the method and setting. Binding seen in cells or lysates may run through a third protein.

By UniProt entry, the sequences of proteins in these tests, tags left out.
UniProt P35222: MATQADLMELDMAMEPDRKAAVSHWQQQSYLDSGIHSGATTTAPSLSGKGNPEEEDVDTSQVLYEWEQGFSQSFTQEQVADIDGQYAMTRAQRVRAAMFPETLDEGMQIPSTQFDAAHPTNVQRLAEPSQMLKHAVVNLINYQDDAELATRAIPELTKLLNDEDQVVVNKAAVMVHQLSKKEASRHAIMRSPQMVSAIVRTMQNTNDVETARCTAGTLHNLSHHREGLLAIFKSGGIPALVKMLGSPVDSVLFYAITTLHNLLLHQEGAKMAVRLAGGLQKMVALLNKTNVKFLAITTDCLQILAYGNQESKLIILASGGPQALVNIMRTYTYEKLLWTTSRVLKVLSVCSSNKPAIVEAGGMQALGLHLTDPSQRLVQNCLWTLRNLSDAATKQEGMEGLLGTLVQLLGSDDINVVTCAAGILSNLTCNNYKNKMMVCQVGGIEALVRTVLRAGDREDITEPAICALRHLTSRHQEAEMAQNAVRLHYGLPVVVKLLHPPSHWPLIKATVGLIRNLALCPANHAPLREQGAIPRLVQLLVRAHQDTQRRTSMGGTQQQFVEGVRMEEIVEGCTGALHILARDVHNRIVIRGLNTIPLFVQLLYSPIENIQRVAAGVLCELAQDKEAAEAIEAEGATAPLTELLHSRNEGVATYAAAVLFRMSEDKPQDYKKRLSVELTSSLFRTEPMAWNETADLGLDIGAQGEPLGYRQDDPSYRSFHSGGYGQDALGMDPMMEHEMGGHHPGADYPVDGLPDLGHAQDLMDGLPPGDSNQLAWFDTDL

Biological target: β-catenin (UniProt P35222)
Experiment: co-IP; exogenous Co-IP; mentioned only in the discussion, no figure and no conditions given

B1: Motile sperm domain-containing protein 2 (MOSPD2) (protein, UniProt Q8NHP6 1-518)
chain: MAENHAQNKAKLISETRRRFEAEYVTDKSDKYDARDVERLQQDDNWVESYLSWRHNIVDETLKMLDESFQWRKEISVNDLNESSIPRWLLEIGVIYLHGYDKEGNKLFWIRVKYHVKDQKTILDKKKLIAFWLERYAKRENGKPVTVMFDLSETGINSIDMDFVRFIINCFKVYYPKYLSKIVIFDMPWLMNAAFKIVKTWLGPEAVSLLKFTSKNEVQDYVSVEYLPPHMGGTDPFKYSYPPLVDDDFQTPLCENGPITSEDETSSKEDIESDGKETLETISNEEQTPLLKKINPTESTSKAEENEKVDSKVKAFKKPLSVFKGPLLHISPAEELYFGSTESGEKKTLIVLTNVTKNIVAFKVRTTAPEKYRVKPSNSSCDPGASVDIVVSPHGGLTVSAQDRFLIMAAEMEQSSGTGPAELTQFWKEVPRNKVMEHRLRCHTVESSKPNTLTLKDNAFNMSDKTSEDICLQLSRLLESNRKLEDQVQRCIWFQQLLLSLTMLLLAFVTSFFYLLYS
B1 was tested, and the binding was “no binding”.
